Laboratory results: PubChem BioAssay AID1259254 (NCATS, 2017)

Assay: 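Finding genes that stop cells copying their DNA twice in one cycle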 (primary screen)
System: human HCT116 colorectal cancer cells
Knock-down reagent: single siRNA against human genes
Time to read-out: 3 days
Measured: 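Nuclei stained with Hoechst and imaged; cell-cycle phase assigned by DNA content; G2 share scaled per plate, non-targeting siRNA 0%, GMNN siRNA 100%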
Reading the numbers: G2 robust z-score and G2 cells, % of GMNN control: higher = more G2 cells, more excess DNA replication; raw share of cells in G2: higher = larger share of cells with G2 DNA content
Hit rule: 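An siRNA counts as active if its G2 robust z-score lies at least 5 MADs above the screen median; here such calls match roughly 38% of GMNN control or more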
The whole screen tested about 59,000 reagents; shown is a random part of them. About 1,550 of them (2.6%) count as active. 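G2 share is only a proxy for re-replication; each gene was hit by three separate siRNAs, and active genes were retested.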 Raw values are not corrected between plates. A number with no mark means an inactive call. Reagents against one gene are numbered here. Not given: the amount of reagent.

gene symbol	reagent	G2 robust z-score	G2 cells, % of GMNN control	raw share of cells in G2 (%)
MANBA (mannosidase beta)	1	-1.56	-8.01	2.3
MANBA (mannosidase beta)	2	-0.755	-2.35	2.42
MANBA (mannosidase beta)	3	7.77 (active)	57.6	27.6
EFHD2 (EF-hand domain family member D2)	1	-0.154	1.88	4.22
EFHD2 (EF-hand domain family member D2)	2	0.0439	3.28	7.39
EFHD2 (EF-hand domain family member D2)	3	-0.327	0.666	3.03
PLD5 (phospholipase D family member 5)	1	-0.0981	2.28	7.04
PLD5 (phospholipase D family member 5)	2	0.336	5.33	6.65
PLD5 (phospholipase D family member 5)	3	-1.03	-4.28	2.9
ABHD17C (abhydrolase domain containing 17C, depalmitoylase)	1	-0.00634	2.92	5.5
ABHD17C (abhydrolase domain containing 17C, depalmitoylase)	2	7.21 (active)	53.7	30.1
ABHD17C (abhydrolase domain containing 17C, depalmitoylase)	3	-0.325	0.678	3.24
TUBB6 (tubulin beta 6 class V)	1	-1.14	-5.02	2.93
TUBB6 (tubulin beta 6 class V)	2	1.03	10.2	9.69
TUBB6 (tubulin beta 6 class V)	3	-0.234	1.32	4.67
ZBTB2 (zinc finger and BTB domain containing 2)	1	-0.538	-0.815	2.5
ZBTB2 (zinc finger and BTB domain containing 2)	2	-1.21	-5.57	3.39
ZBTB2 (zinc finger and BTB domain containing 2)	3	-1.12	-4.88	2.1
MPPED2 (metallophosphoesterase domain containing 2)	1	0.16	4.1	6.53
MPPED2 (metallophosphoesterase domain containing 2)	2	0.111	3.75	6
MPPED2 (metallophosphoesterase domain containing 2)	3	0.122	3.83	5.42
TXLNG (taxilin gamma)	1	-0.343	0.552	4.74
TXLNG (taxilin gamma)	2	0.611	7.26	7.15
TXLNG (taxilin gamma)	3	0.245	4.69	4.63
ZCWPW1 (zinc finger CW-type and PWWP domain containing 1)	1	1.07	10.5	8.55
ZCWPW1 (zinc finger CW-type and PWWP domain containing 1)	2	-0.469	-0.329	4
ZCWPW1 (zinc finger CW-type and PWWP domain containing 1)	3	0.0314	3.19	4.15
NUB1 (negative regulator of ubiquitin like proteins 1)	1	0.398	5.77	5.67
NUB1 (negative regulator of ubiquitin like proteins 1)	2	1.53	13.7	10.1
NUB1 (negative regulator of ubiquitin like proteins 1)	3	6.1 (active)	45.9	18.4
NKX2-2 (NK2 homeobox 2)	1	0.0971	3.65	6.77
NKX2-2 (NK2 homeobox 2)	2	-0.561	-0.983	2.87
NKX2-2 (NK2 homeobox 2)	3	1.71	15	11.4
ALDH9A1 (aldehyde dehydrogenase 9 family member A1)	1	-0.443	-0.146	4.67
ALDH9A1 (aldehyde dehydrogenase 9 family member A1)	2	-0.573	-1.06	4.69
ALDH9A1 (aldehyde dehydrogenase 9 family member A1)	3	3.42	27	14
NT5C1A (5'-nucleotidase, cytosolic IA)	1	6.61 (active)	49.5	26
NT5C1A (5'-nucleotidase, cytosolic IA)	2	-1.2	-5.44	2.22
NT5C1A (5'-nucleotidase, cytosolic IA)	3	0.169	4.16	6.33
CYBB (cytochrome b-245 beta chain)	1	-0.397	0.174	5.02
CYBB (cytochrome b-245 beta chain)	2	2.05	17.4	11.3
CYBB (cytochrome b-245 beta chain)	3	0.00675	3.01	5.13
EPS8L2 (EPS8 signaling adaptor L2)	1	4.5	34.7	16.6
EPS8L2 (EPS8 signaling adaptor L2)	2	2.98	23.9	12.9
EPS8L2 (EPS8 signaling adaptor L2)	3	-1.3	-6.15	3.1
FAM177A1P1 (family with sequence similarity 177 member A1 pseudogene 1)	1	0.192	4.32	5.58
FAM177A1P1 (family with sequence similarity 177 member A1 pseudogene 1)	2	-0.541	-0.838	3.05
FAM177A1P1 (family with sequence similarity 177 member A1 pseudogene 1)	3	-0.0618	2.53	4.09

Targets listed so far whose gene name begins with E or e:
gene symbol	reagent	G2 robust z-score	G2 cells, % of GMNN control	raw share of cells in G2 (%)
EFHD2 (EF-hand domain family member D2)	1	-0.154	1.88	4.22
EFHD2 (EF-hand domain family member D2)	2	0.0439	3.28	7.39
EFHD2 (EF-hand domain family member D2)	3	-0.327	0.666	3.03
EPS8L2 (EPS8 signaling adaptor L2)	1	4.5	34.7	16.6
EPS8L2 (EPS8 signaling adaptor L2)	2	2.98	23.9	12.9
EPS8L2 (EPS8 signaling adaptor L2)	3	-1.3	-6.15	3.1
